This is one part of the list.
These targets were tested with C1=CC2=C(C=CC(=C2)/C=C\3/C(=O)NC(=NCC4=CC=CS4)S3)N=C1 (assay: log2 fold change, soluble protein after heating vs DMSO (PISA); higher = thermal stabilisation; K562 cells, 10 uM, 30 min; active = over 0.2 and 3.5 SD of the protein, either way, in both replicates (recomputed)).
In short: (§1)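 K562 cells at 2×10^6 cells/mL were treated with 10 μM compound for 30 min. Aliquots were heated for 3 min across 48°C-58°C, pooled, and extracted in PBS with 0.5% NP-40 at 4°C; soluble protein was the supernatant after 21,000xg for 90 min. Soluble protein was quantified by TMTpro 16plex LC-MS/MS with channel sums equalised, and reported as log2 fold change in thermal stability against DMSO controls, with values from duplicates.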

Protein sequences, listed by entry. Tags and fused reporters are not part of them. Lines headed by an entry give the natural chain unless they say otherwise; changes in a name come on top.
UniProt Q9BT25: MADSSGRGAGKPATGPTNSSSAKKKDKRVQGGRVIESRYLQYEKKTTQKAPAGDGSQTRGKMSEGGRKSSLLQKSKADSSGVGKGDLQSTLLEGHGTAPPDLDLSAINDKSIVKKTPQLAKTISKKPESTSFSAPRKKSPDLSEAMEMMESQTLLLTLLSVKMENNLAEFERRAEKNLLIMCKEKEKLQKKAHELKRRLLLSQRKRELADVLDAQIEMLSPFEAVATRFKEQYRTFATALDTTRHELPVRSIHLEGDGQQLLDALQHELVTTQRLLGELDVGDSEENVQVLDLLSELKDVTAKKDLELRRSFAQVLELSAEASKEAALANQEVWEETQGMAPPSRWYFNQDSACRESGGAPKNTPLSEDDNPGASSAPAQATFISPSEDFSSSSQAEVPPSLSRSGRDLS
UniProt P68871: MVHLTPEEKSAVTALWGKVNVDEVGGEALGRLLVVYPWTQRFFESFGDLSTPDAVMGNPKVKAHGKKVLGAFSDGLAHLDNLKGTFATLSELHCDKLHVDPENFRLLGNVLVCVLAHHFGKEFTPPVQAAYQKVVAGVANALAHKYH
UniProt Q9NVX0: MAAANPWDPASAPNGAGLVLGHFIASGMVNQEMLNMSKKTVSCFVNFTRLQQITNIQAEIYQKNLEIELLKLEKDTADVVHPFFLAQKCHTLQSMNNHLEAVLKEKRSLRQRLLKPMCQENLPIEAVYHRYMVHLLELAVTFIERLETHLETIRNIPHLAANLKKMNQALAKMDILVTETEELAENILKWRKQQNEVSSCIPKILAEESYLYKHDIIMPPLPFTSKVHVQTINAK
UniProt P42357: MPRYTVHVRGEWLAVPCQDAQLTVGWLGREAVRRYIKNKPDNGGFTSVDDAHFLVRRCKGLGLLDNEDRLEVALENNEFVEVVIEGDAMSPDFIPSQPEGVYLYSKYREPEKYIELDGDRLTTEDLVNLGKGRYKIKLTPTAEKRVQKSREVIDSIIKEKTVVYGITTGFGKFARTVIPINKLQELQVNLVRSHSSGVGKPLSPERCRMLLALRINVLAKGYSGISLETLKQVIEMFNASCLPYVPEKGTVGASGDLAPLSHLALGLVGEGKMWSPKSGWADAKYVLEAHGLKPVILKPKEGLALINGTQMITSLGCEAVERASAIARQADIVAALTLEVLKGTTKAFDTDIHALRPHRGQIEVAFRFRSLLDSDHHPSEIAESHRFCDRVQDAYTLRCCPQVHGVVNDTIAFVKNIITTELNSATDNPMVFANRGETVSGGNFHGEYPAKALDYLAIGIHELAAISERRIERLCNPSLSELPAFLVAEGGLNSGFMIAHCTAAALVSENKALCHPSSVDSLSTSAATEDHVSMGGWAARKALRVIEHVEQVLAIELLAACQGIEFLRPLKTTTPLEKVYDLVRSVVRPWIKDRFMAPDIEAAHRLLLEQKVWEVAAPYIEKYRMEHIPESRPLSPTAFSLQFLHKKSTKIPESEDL
UniProt O94927: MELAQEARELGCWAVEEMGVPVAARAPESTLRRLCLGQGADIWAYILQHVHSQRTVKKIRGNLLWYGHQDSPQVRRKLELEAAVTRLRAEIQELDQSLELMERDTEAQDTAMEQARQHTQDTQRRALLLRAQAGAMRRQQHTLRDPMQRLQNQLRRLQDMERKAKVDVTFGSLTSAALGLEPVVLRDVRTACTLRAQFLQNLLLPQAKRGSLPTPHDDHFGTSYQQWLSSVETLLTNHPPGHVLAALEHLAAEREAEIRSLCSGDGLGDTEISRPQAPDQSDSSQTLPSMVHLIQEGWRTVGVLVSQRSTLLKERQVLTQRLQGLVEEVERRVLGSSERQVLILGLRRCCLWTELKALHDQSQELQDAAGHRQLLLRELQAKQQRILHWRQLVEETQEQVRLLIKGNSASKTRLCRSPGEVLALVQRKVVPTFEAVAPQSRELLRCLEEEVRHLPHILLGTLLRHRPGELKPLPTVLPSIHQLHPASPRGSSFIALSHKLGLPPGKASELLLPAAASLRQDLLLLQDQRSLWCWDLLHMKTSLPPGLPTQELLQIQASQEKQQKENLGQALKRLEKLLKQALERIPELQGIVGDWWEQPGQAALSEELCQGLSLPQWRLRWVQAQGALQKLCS
UniProt Q92759: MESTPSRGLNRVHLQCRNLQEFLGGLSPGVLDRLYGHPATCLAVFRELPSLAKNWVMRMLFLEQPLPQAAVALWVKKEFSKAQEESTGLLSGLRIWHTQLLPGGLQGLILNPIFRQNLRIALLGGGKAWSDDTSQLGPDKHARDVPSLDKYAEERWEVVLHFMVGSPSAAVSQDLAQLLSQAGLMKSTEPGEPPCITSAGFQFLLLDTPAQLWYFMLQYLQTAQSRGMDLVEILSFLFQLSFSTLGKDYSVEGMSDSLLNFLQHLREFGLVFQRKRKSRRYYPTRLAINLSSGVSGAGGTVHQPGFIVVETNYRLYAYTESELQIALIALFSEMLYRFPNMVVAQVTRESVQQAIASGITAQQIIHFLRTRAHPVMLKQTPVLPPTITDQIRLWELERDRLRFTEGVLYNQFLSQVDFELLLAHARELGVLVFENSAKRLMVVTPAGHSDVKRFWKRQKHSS
UniProt Q99871: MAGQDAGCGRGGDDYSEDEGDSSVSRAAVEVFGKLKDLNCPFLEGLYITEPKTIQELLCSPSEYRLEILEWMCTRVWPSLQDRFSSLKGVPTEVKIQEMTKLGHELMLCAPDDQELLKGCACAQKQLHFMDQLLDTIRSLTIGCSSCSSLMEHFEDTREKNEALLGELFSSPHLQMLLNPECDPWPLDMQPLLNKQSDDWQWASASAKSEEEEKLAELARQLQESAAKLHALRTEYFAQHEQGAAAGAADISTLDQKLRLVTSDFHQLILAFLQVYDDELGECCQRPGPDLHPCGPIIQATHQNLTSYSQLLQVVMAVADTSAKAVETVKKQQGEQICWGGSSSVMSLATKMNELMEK
UniProt Q8N442: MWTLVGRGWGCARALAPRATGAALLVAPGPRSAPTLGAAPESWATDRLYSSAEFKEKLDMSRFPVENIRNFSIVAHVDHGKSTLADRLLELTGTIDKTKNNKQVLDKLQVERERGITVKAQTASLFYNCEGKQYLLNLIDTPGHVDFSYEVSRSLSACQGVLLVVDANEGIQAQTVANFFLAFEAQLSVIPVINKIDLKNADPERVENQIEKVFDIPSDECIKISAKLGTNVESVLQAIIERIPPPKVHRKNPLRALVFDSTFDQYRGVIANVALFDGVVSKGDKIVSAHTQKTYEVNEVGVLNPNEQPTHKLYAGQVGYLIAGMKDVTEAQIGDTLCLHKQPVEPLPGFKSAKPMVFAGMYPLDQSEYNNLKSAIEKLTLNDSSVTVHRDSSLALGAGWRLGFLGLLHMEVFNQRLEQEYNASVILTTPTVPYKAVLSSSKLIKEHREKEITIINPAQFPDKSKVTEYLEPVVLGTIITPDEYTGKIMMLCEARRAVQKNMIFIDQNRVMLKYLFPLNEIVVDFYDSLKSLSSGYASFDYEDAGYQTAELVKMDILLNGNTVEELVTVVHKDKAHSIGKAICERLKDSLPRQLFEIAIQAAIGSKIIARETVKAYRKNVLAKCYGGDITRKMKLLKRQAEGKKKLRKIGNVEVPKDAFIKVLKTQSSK
UniProt Q14469: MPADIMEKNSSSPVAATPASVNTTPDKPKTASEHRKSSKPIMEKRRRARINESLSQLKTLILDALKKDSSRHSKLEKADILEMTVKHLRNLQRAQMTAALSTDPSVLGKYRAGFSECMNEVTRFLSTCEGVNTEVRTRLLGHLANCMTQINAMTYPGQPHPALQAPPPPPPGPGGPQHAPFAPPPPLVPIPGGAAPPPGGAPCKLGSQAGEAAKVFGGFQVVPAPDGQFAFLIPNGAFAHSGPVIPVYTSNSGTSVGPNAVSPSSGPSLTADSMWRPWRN
UniProt O75367, whole entry, looked up: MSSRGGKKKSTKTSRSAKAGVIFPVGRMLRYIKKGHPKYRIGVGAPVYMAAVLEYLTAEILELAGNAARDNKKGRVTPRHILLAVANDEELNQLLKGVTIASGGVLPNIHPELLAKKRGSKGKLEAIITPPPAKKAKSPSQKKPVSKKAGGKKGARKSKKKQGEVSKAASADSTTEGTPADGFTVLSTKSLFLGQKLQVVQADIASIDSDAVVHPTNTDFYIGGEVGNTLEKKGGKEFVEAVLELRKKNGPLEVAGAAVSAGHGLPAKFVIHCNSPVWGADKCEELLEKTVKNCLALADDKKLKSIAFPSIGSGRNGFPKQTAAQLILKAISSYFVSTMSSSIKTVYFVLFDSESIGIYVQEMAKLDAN
UniProt Q6PII5: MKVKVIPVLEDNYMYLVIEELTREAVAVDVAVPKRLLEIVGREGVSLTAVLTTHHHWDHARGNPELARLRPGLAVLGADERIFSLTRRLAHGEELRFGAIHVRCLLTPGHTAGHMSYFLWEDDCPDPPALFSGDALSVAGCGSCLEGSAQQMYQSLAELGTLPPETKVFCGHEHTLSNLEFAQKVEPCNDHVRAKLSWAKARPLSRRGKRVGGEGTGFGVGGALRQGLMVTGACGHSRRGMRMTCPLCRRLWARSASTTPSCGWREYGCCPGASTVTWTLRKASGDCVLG
UniProt P08263: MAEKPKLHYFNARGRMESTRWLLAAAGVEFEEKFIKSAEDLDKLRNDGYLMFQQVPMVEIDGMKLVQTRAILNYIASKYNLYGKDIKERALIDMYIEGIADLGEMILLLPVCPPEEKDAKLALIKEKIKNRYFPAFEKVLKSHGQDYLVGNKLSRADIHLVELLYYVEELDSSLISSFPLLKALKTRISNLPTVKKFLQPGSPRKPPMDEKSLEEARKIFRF
UniProt Q7Z4Q2: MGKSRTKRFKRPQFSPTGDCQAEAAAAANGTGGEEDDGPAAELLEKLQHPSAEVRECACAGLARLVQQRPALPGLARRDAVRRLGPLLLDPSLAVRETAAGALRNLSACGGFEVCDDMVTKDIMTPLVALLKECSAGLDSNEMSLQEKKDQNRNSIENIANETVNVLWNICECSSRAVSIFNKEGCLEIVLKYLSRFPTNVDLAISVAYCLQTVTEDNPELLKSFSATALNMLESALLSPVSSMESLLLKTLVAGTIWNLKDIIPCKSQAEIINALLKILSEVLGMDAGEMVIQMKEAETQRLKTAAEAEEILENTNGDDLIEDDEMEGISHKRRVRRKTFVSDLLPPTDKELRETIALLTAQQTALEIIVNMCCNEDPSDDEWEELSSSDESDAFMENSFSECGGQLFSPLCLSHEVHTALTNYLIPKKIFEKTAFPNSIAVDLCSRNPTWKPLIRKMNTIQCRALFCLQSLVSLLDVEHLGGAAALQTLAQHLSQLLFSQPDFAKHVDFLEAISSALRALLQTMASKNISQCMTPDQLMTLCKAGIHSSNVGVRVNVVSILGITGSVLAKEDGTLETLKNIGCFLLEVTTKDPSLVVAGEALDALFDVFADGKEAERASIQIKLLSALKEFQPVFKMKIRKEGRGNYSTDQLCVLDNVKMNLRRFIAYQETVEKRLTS
UniProt P32780: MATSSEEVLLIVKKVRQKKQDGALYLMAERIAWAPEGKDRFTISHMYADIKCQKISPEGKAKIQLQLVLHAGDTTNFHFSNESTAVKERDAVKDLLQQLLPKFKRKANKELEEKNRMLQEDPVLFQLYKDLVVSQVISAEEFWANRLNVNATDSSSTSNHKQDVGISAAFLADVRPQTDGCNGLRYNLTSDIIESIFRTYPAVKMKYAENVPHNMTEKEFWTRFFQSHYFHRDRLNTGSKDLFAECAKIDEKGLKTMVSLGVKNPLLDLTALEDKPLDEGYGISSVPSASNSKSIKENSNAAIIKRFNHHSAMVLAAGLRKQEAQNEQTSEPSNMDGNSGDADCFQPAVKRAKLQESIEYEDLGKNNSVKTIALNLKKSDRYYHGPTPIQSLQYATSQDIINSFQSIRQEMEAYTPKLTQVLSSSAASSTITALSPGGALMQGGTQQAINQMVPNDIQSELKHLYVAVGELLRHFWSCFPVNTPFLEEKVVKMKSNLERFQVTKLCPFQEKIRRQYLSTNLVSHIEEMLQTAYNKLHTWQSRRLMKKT
UniProt Q8N3Z3: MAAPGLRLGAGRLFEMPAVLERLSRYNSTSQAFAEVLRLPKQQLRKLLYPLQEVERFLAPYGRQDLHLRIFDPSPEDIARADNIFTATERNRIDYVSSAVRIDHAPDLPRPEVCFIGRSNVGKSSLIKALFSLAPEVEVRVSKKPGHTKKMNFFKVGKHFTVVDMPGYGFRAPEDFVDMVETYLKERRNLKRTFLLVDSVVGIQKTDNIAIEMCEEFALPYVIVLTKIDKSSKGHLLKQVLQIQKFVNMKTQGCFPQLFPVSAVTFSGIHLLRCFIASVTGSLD
UniProt Q6Y1H2: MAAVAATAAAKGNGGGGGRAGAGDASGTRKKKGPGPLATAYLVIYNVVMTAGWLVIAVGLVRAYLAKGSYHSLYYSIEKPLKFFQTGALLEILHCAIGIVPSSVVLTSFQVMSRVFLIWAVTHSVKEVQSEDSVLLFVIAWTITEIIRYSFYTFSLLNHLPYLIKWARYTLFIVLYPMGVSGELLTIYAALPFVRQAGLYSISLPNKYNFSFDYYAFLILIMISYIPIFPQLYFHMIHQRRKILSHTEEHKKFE

log2 fold change, inactive:
HAUS8 (UniProt Q9BT25) 0.126
HBB (UniProt P68871) 0.073
HERC2 (UniProt O95714) 0.063
HAUS2 (UniProt Q9NVX0) -0.331
HAL (UniProt P42357) 0.404
HAUS5 (UniProt O94927) 0.037
GTF2H4 (UniProt Q92759) 0.17
HAUS7 isoform 2 (UniProt Q99871) 0.011
GTPBP4 (UniProt Q9BZE4) -0.029
GZF1 (UniProt Q9H116) -0.296
GUF1 (UniProt Q8N442) -0.045
HES1 (UniProt Q14469) 0.043

The targets below were run with C1=CC2=NC=CN=C2C=C1/C=C/3\C(=O)NC(=O)S3 in the same assay as above.
In short: as §1

log2 fold change, inactive:
HGFAC (UniProt Q04756) 0.093
H3-3A (UniProt P84243) -0.1
H2AFY (UniProt O75367) 0.102
HGF (UniProt P14210) 0.083
GTF3C6 (UniProt Q969F1) 0.122
HAGHL (UniProt Q6PII5) 0.287
H3-2 (UniProt Q5TEC6) -0.271
GSTA1 (UniProt P08263) -0.08
HERC2 (UniProt O95714) -0.313
HFM1 (UniProt A2PYH4) 0.117
HELLS (UniProt Q9NRZ9) 0.021
HABP4 (UniProt Q5JVS0) 0.224
GTF3C3 (UniProt Q9Y5Q9) 0.067
GTPBP4 (UniProt Q9BZE4) -0.067
HEATR3 (UniProt Q7Z4Q2) -0.044
HBZ, A0A494C057 -0.055

What follows are targets tested with C1=CC=C(C=C1)C2=NC(=C(N2)C3=CC=NC=C3)C4=CC(=C(C=C4)Cl)O in the same assay as above.
In short: as §1

log2 fold change, inactive:
H2AFY (UniProt O75367) 0.015
HAUS8 (UniProt Q9BT25) -0.008
HAGHL (UniProt Q6PII5) 0.121
HCFC1 (UniProt P51610) 0.054
H3-2 (UniProt Q5TEC6) -0.027
HERC2 (UniProt O95714) -0.209
HAUS5 (UniProt O94927) -0.068
H3C1 (UniProt P68431) -0.354
HABP4 (UniProt Q5JVS0) 0.026
HAUS7 isoform 2 (UniProt Q99871) -0.069
GTF2H1 (UniProt P32780) 0.037
GTPBP4 (UniProt Q9BZE4) -0.119
GUF1 (UniProt Q8N442) 0.01
HEATR3 (UniProt Q7Z4Q2) 0.062

The targets below were run with C1=CC=C2C(=C1)C3=NNC4=CC=CC(=C43)C2=O in the same assay as above.
In short: as §1

log2 fold change, inactive:
HAUS8 (UniProt Q9BT25) -0.035
HBB (UniProt P68871) -0.005
HERC2 (UniProt O95714) 0
HAUS2 (UniProt Q9NVX0) -0.046
HAL (UniProt P42357) -0.351
HAUS5 (UniProt O94927) 0.027
GTF2H4 (UniProt Q92759) 0.085
HAUS7 isoform 2 (UniProt Q99871) -0.024
GTPBP4 (UniProt Q9BZE4) -0.081
GZF1 (UniProt Q9H116) -0.453
GUF1 (UniProt Q8N442) 0.14
HES1 (UniProt Q14469) -0.096

These targets were tested with C1CCN(C1)C(=O)NC2=CC=CC(=C2)NC3=NC=C(C(=N3)NCCC4=CN=CN4)Br in the same assay as above.
In short: as §1

log2 fold change, inactive:
HGFAC (UniProt Q04756) -0.043
H3-3A (UniProt P84243) 0.049
H2AFY (UniProt O75367) 0.269
HGF (UniProt P14210) 0.148
GTF3C6 (UniProt Q969F1) 0.026
HAGHL (UniProt Q6PII5) -0.07
HCFC1 (UniProt P51610) -0.038
GTPBP8 (UniProt Q8N3Z3) 0
GSTA1 (UniProt P08263) 0.189
HERC2 (UniProt O95714) 0.143
HAL (UniProt P42357) -0.106
HAUS5 (UniProt O94927) -0.403
GTF2H4 (UniProt Q92759) 0.19
GTF3C3 (UniProt Q9Y5Q9) -0.1
GTPBP4 (UniProt Q9BZE4) -0.01
HERPUD1 (UniProt Q15011) 0.017
GUF1 (UniProt Q8N442) -0.022
HEATR3 (UniProt Q7Z4Q2) -0.113
HES1 (UniProt Q14469) -0.214
HACE1 (UniProt Q8IYU2) -0.123
HACD2 (UniProt Q6Y1H2) -0.046

— the supplement of paper PMC10849652
